Measurements as given in patent US20180105596A1 (ELSALYS BIOTECH, published 2018).

Molecular target: murine TYRO3-ECD
Assay: sandwich ELISA, Strep-tagged murine Tyro3 ECD captured on StrepMAB plate, scFv 10 µg/mL (Table 16), anti-FLAG-HRP

B1: anti-Tyro3 scFv 2718 (scFv, V domains shown)
VH: EVQLVQSGADVKKPGASLTISCQASGYTFTDYWISWVRQKPGKGLEWMGHINPMRSTTTYGPSFQGHVTISADRSTATAYLQWHSLEASDTAMYYCVRNDNHDDYTYTDDWGPGTLVTVSS
VL: SYELTQPPSVSVSPGQTARITCSGDALPKKYAYWYQQKSGQAPVLVIYEDTKRHSGIPERFSGSSSGTMATLTISGAQVEDEADYYCYSAEHRGNYAVFGGGTKLTVL
notes: Tested as a single-chain Fv made in E. coli
- binding: binds

No constants are given. Whether binding was seen depends on the method and setting. Binding calls can cover weak binding; strength is not graded here.
